{"source": "patent US11357758B2", "about": "“Epithelial cell spheroids and methods of making and using the same” (The University of North Carolina at Chapel Hill, priority 2016, dated 2022)", "assay_type_in_all_cases": "cell-based, human", "key": {"[1]": {"system": "NL AMO nasospheres", "assay": "Shrinking assay of non-CF (NL) AMO nasospheres", "settings": "amiloride to inhibit ENaC and forskolin to activate CFTR"}, "[2]": {"system": "CF (ΔF508/ΔF508) nasospheres", "assay": "Shrinking assay of CF (ΔF508/ΔF508) AMO nasospheres", "settings": "amiloride and forskolin"}, "[3]": {"system": "NL AMI nasospheres", "assay": "Swelling assay of NL AMI nasospheres", "settings": "NL AMI (inward facing) nasospheres; ENaC inhibited with benzamil, CFTR activated with forskolin"}, "[4]": {"system": "NL AMI bronchospheres", "assay": "Swelling assay of NL AMI bronchospheres", "settings": "NL AMI (inward facing) bronchospheres; benzamil pretreatment and forskolin stimulation; 3 donors"}}, "note": "“Also recorded” adds a separate entry of the source. At least one structure is not confirmed: it was looked up by name or label, or the drawing left a doubt.", "data": [{"smiles": "C=C[C@@]1(C)CC(=O)[C@]2(O)[C@@]3(C)[C@@H](O)CCC(C)(C)[C@@H]3[C@H](O)[C@H](OC(C)=O)[C@@]2(C)O1", "note": "[forskolin]", "values": [{"measurement": "nasosphere volume response", "setting": "[1]", "result": "volume shrinkage"}, {"measurement": "nasosphere volume response", "setting": "[2]", "result": "but not CF"}, {"measurement": "nasosphere volume response", "setting": "[3]", "result": "volume increase; also recorded: swell"}, {"measurement": "bronchosphere volume response", "setting": "[4]", "result": "swell"}]}]}
